Source: PubChem BioAssay AID250 (DTP/NCI, 2004)
The list is a part of this screen's results and no random one: it gathers tests that were run many times, whatever their T/C, doses with no T/C, and many T/C values between a quarter and a half above the control. Other doses and runs of a compound stand elsewhere. T/C: endpoint of the treated group in % of that of the vehicle group. Some entries give survivors of the animals treated and no T/C: the source files T/C as zero there, which appears to mark a toxic dose or a test without result, not a measured value. Some survivor counts are full or nearly so, which does not show that the dose was tolerated: survival well below the control is almost never listed, so the zero probably covers shortened survival too. Counts of survivors are from the toxicity check (mostly the fifth day) where no day follows; animals may have died later. Schedule codes are those of the source, read here as Q, the interval in days (D) or hours (H), X, the number of doses. Some schedule codes hold Z or #, which are not explained here. Some structures stand for samples that the source files as different forms (salt, stereo form or complex); doses refer to the form tested. Some doses were run more than once; the results are listed from low to high. Where survival is the endpoint, this PubChem deposit counts one and a half times the control or more as active, and values a quarter to a half above the control carry no call in these data; other NCI protocols may use other cut-offs. Brackets with × count equal records among those shown.

Tested on: BDF1 mice, L1210 leukemia sc, survival T/C
Assay: NCI In Vivo Anticancer Drug Screen. Data for tumor model L1210 Leukemia (subcutaneous) in B6D2F1 (BDF1) mice
Settings: higher T/C = longer survival; for T/C: schedule: Q01DX009 (sc)
Protocol: The antitumor activity of compounds was measured in mice bearing transplantable tumors. Survival or tumor size were measured and the results are expressed as the measurement made in the treated group (T) divided by the measurement made in the vehicle treated control group (C). The tumor model used in this assay is L1210 Leukemia (subcutaneous) in B6D2F1 (BDF1) mice

[1] = T/C endpoint: median survival time, dose: 108.0 mg/kg/injection, schedule: Q01DX Z (sc), vehicle: water
[2] = T/C endpoint: median survival time, dose: 180.0 mg/kg/injection, schedule: Q01DX Z (sc), vehicle: water
[3] = T/C endpoint: median survival time, dose: 500.0 mg/kg/injection, schedule: Q01DX Z (sc), vehicle: water
[4] = T/C endpoint: median survival time, dose: 833.0 mg/kg/injection, schedule: Q01DX Z (sc), vehicle: water
[5] = T/C endpoint: median survival time, dose: 5.0 mg/kg/injection, schedule: Q01DX Z (sc), vehicle: methylcellulose (MC)
[6] = T/C endpoint: median survival time, dose: 65.0 mg/kg/injection, schedule: Q01DX Z (sc), vehicle: methylcellulose (MC)
[7] = T/C endpoint: median survival time, dose: 108.0 mg/kg/injection, schedule: Q01DX Z (sc), vehicle: methylcellulose (MC)
[8] = T/C endpoint: median survival time, dose: 180.0 mg/kg/injection, schedule: Q01DX Z (sc), vehicle: methylcellulose (MC)
[9] = T/C endpoint: median survival time, dose: 300.0 mg/kg/injection, schedule: Q01DX Z (sc), vehicle: methylcellulose (MC)

Structure (SMILES): NN=C(N)N
- survivor count (T/C endpoint: median survival time, dose: 23.0 mg/kg/injection, schedule: Q01DX Z (sc), vehicle: water): 3 of 10
- survivor count (T/C endpoint: median survival time, dose: 39.0 mg/kg/injection, schedule: Q01DX Z (sc), vehicle: water): 3 of 10
- survivor count (T/C endpoint: median survival time, dose: 65.0 mg/kg/injection, schedule: Q01DX Z (sc), vehicle: water): 5 of 10
- survivor count [1]: 3 of 10
- survivor count [2]: 3 of 10
- survivor count (T/C endpoint: median survival time, dose: 300.0 mg/kg/injection, schedule: Q01DX Z (sc), vehicle: water): 3 of 10
- survivor count [3]: 4 of 10
- survivor count [4]: 4 of 10

Structure (SMILES): COC(=N)N
- survivor count (T/C endpoint: median survival time, dose: 0.65 mg/kg/injection, schedule: Q01DX Z (sc), vehicle: methylcellulose (MC)): 6 of 10
- survivor count (T/C endpoint: median survival time, dose: 1.08 mg/kg/injection, schedule: Q01DX Z (sc), vehicle: methylcellulose (MC)): 5 of 10
- survivor count [5]: 6 of 10

Structure (SMILES): O=S1OCCS1 (stereo not drawn)
- survivor count (T/C endpoint: median survival time, dose: 60.0 mg/kg/injection, schedule: Q01DX Z (sc), vehicle: saline): 4 of 10
- survivor count (T/C endpoint: median survival time, dose: 100.0 mg/kg/injection, schedule: Q01DX Z (sc), vehicle: saline): 0 of 10

Structure (SMILES): O=C(O)CCCc1ccc(N(CCCl)CCCl)cc1
- survivor count [6]: 2 of 10
- survivor count [7]: 0 of 10
- survivor count [8]: 0 of 10
- survivor count [9]: 0 of 10

Structure (SMILES): CCOS(C)(=O)=O
- survivor count (T/C endpoint: median survival time, dose: 300.0 mg/kg/injection, schedule: Q01DX Z (sc), vehicle: saline): 2 of 10

Structure (SMILES): CCCCCCC(=O)O[C@H]1CC[C@H]2[C@@H]3CCC4=CC(=O)CC[C@]4(C)[C@H]3CC[C@]12C
- T/C (T/C endpoint: median survival time, dose: 80.0 mg/kg/injection, vehicle: other): 95, 100, 102, 105 % of control
- T/C (T/C endpoint: median survival time, dose: 160.0 mg/kg/injection, vehicle: other): 100 (2×), 101, 102 % of control
- survivor count (T/C endpoint: median survival time, dose: 320.0 mg/kg/injection, schedule: Q01DX009 (ip), vehicle: other): 10 of 10
- survivor count (T/C endpoint: median survival time, dose: 640.0 mg/kg/injection, schedule: Q01DX009 (ip), vehicle: other): 3 of 10

Structure (SMILES): CCN(CC)CCCC(C)Nc1c2ccc(Cl)cc2nc2ccc(OC)cc12 (stereo not drawn)
- survivor count [3]: 1 of 10

Structure (SMILES): COS(C)(=O)=O
- survivor count [1]: 6 of 10
- survivor count [2]: 0 of 10

Structure (SMILES): C[C@]12C=CC(=O)C=C1CC[C@@H]1[C@@H]2CC[C@]2(C)OC(=O)CC[C@@H]12
- survivor count [7]: 6 of 10

Structure (SMILES): CS(=O)(=O)OCCCl
- survivor count [7]: 5 of 10
- survivor count [8]: 0 of 10

Structure (SMILES): O=C(NC(CO)C(=O)O)C(Cl)Cl (stereo not drawn)
- survivor count [4]: 4 of 10

Structure (SMILES): CCCCCn1c(C)cc(/C=C\c2ccc3cc(C)ccc3[n+]2C)c1C
- survivor count (T/C endpoint: median survival time, dose: 1.8 mg/kg/injection, schedule: Q01DX Z (sc), vehicle: methylcellulose (MC)): 10 of 10
- survivor count (T/C endpoint: median survival time, dose: 3.0 mg/kg/injection, schedule: Q01DX Z (sc), vehicle: methylcellulose (MC)): 1 of 10
- survivor count [5]: 2 of 10
- survivor count (T/C endpoint: median survival time, dose: 8.4 mg/kg/injection, schedule: Q01DX Z (sc), vehicle: methylcellulose (MC)): 1 of 10
- survivor count (T/C endpoint: median survival time, dose: 14.0 mg/kg/injection, schedule: Q01DX Z (sc), vehicle: methylcellulose (MC)): 0 of 10

Structure (SMILES): O=c1nc2[nH]c(=O)[nH]c(=O)c2n[nH]1
- survivor count (T/C endpoint: median survival time, dose: 17.0 mg/kg/injection, schedule: Q01DX Z (sc), vehicle: saline): 6 of 10
- survivor count (T/C endpoint: median survival time, dose: 130.0 mg/kg/injection, schedule: Q01DX Z (sc), vehicle: saline): 6 of 10
- survivor count (T/C endpoint: median survival time, dose: 216.0 mg/kg/injection, schedule: Q01DX Z (sc), vehicle: saline): 5 of 10

Structure (SMILES): CC1(O)CCC2C3CCC4=C(O)C(=O)CCC4C3CCC21C (stereo not drawn)
- survivor count (T/C endpoint: median survival time, dose: 39.0 mg/kg/injection, schedule: Q01DX Z (sc), vehicle: methylcellulose (MC)): 1 of 10
- survivor count [6]: 3 of 10 and 4 of 10
- survivor count [7]: 6 of 10
- survivor count [8]: 0 of 10 and 5 of 10
- survivor count [9]: 2 of 10 and 4 of 10
- survivor count (T/C endpoint: median survival time, dose: 500.0 mg/kg/injection, schedule: Q01DX Z (sc), vehicle: methylcellulose (MC)): 2 of 10
- survivor count (T/C endpoint: median survival time, dose: 833.0 mg/kg/injection, schedule: Q01DX Z (sc), vehicle: methylcellulose (MC)): 4 of 10

Structure (SMILES): [I][Hg][CH2]C1COC([CH2][Hg][I])CO1 (stereo not drawn)
- survivor count (T/C endpoint: median survival time, dose: 180.0 mg/kg/injection, schedule: Q01DX Z (sc), vehicle: other): 1 of 10

Structure (SMILES): COc1cc(NS(C)(=O)=O)ccc1Nc1c2ccccc2nc2ccccc12
- survivor count (T/C endpoint: mean survival time, dose: 10.0 mg/kg/injection, schedule: Q01DX009 (ip), vehicle: saline): 8 of 10
- survivor count (T/C endpoint: mean survival time, dose: 20.0 mg/kg/injection, schedule: Q01DX009 (ip), vehicle: saline): 10 of 10
- survivor count (T/C endpoint: median survival time, dose: 8.0 mg/kg/injection, schedule: Q01DX009 (ip), vehicle: other): 6 of 10
